In the supplement of paper PMC8256030:
Structures can show the parent of a compound that is named as a salt. The list shows a part of the results. This data set is noisy: repeats of one test often differ as much as different tests do.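 HEK293T cells were given each compound shortly before transfection with a reporter in which red mCherry is followed by the SARS-CoV-2 frameshift element and then GFP in the −1 frame, so GFP appears only after frameshifting.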

Tested on: SARS-CoV-2 -1 PRF reporter mCherry-FSE-GFP(-1)
Experiment: mCherry (red) intensity as percent of control; higher = higher upstream reporter expression
Conditions: 10 µM; 24 h; HEK293T

Compound | mCherry
CC(=O)c1ccc(S(=O)(=O)NC(=O)NC2CCCCC2)cc1 [acetohexamide] | 112%
NC1=NCC2c3ccccc3Cc3ccccc3N12 (centres undefined) [epinastine] | 105%
O=C(O[C@H]1CN2CCC1CC2)N1CCc2ccccc2[C@@H]1c1ccccc1 | 104%
COC(=O)[C@H]1[C@H]2C[C@@H]3c4[nH]c5ccccc5c4CCN3C[C@H]2C[C@@H](OC(=O)c2cc(OC)c(OC)c(OC)c2)[C@@H]1OC [deserpidine] | 95.7%
CC(C)NCC(O)COc1ccc(CCOCC2CC2)cc1 (centres undefined) [Betaxolol·HCl] | 84.6%
CN(C)CCC=C1c2ccccc2C(C)(C)c2ccccc21 [melitracen] | 97.9%
O=C1c2ccccc2CN2C(=O)c3ccccc3CN12 [diftalone] | 100%
CN(C)/N=N/c1[nH]cnc1C(N)=O | 87.4%
CC[N+](C)(C)Cc1ccccc1Br [bretylium tosilate] | 98.9%
NCCC[C@H](N)CC(=O)N[C@H]1CNC(=O)[C@H]([C@H]2C[C@H](O)NC(N)=N2)NC(=O)/C(=C/NC(N)=O)NC(=O)[C@H](CO)NC(=O)[C@H](CO)NC1=O | 103%
CC(C(=O)O)c1ccc2oc(-c3ccc(Cl)cc3)nc2c1 (centres undefined) [benoxaprofen] | 61.6%
CO[C@@]1(NC(=O)C(C(=O)O)c2ccc(O)cc2)C(=O)N2C(C(=O)O)=C(CSc3nnnn3C)CO[C@@H]21 (some centres undefined) | 105%
Nc1nc(CC(=O)Nc2ccc(CCNC[C@H](O)c3ccccc3)cc2)cs1 [Mirabegron] | 89.8%
CN1C(=O)CC[C@H]1c1cccnc1 [cotinine] | 96.9%

2 records picked at random from those above, as already listed:
Compound | mCherry
O=C(O[C@H]1CN2CCC1CC2)N1CCc2ccccc2[C@@H]1c1ccccc1 | 104%
O=C1c2ccccc2CN2C(=O)c3ccccc3CN12 [diftalone] | 100%
